Our source for the binding values is publication PMC5173098.

Chains of the proteins cited; added tags and fusions are not shown.
UniProt Q13489: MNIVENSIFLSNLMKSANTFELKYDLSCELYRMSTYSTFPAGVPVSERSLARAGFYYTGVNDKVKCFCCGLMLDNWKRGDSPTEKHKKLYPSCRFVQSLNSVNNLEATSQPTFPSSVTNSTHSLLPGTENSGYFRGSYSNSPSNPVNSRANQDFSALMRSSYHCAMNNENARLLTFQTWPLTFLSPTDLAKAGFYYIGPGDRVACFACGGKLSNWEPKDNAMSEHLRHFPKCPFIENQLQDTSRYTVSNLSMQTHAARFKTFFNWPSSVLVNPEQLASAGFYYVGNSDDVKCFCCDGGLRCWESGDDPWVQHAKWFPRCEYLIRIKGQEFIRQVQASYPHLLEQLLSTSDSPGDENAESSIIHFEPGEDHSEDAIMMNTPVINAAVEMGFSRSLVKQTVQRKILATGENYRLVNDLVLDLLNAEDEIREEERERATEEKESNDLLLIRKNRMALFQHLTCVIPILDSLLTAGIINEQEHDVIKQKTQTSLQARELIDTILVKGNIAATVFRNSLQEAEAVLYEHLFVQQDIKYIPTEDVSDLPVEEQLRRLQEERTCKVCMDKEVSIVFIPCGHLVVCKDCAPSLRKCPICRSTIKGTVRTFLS

Assay [1] addresses T1, Myc-tagged Pellino-1 (human) (UniProt Q96FA3).
T1 sequence: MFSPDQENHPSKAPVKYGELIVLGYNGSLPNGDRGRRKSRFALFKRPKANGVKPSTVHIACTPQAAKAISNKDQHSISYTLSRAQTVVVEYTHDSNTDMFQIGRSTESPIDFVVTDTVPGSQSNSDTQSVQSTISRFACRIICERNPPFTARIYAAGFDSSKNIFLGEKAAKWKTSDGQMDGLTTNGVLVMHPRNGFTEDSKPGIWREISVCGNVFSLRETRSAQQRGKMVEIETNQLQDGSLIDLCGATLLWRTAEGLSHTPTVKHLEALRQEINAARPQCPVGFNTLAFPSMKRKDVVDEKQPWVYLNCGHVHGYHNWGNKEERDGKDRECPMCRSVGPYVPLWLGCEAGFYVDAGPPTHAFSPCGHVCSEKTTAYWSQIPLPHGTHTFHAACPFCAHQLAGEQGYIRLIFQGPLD
As to the kind of experiment: co-IP; HCT116 cells transfected with Myc-Pellino-1 and Flag-cIAP2, 48 hours; 2 mg lysate in 50 mM Tris-HCl pH 7.5, 150 mM NaCl, 1% NP40, 1 mM EDTA; IP with anti-Myc 2 hours at 4°C, blot anti-Flag.

Assay [2] has as its target T2, TAP-tagged Pellino-1 (human) (UniProt Q96FA3).
T2 sequence: T1 sequence
As to the kind of experiment: pull-down; lysates of 293T cells stably expressing TAP (Strep-Flag)-Pellino-1 in NETN buffer (100 mM NaCl, 1 mM EDTA, 20 mM Tris-HCl pH 8.0, 0.5% Nonidet P-40) incubated with streptavidin-Sepharose beads 8 hours at 4°C; bound proteins immunoblotted with anti-cIAP1, anti-cIAP2, anti-Flag. (A western blot detects proteins with antibodies after separation by electrophoresis.)

The target of assay [3] is T3, GST-Pellino-1 fusion protein (human) (UniProt Q96FA3).
T3 sequence: T1 sequence
Briefly: pull-down; GST-Pellino-1 absorbed onto glutathione Sepharose beads, incubated with whole-cell extracts from asynchronized A549 cells; immunoblot; only the target purified.

These are yes or no findings as the source states them, for the method shown. Binding seen in cells or lysates may run through a third protein. Some entries that bind do so weakly or less than the wild type. Sequences can lack the tags named with a protein.

Take Flag-cIAP2 (from UniProt Q13489 1-604): the binding result in assay [1] is reported as “binds”.
“cIAP2 (endogenous, 293T cells) (from UniProt Q13489 1-604)”: the binding entry in assay [2] is “binds”.
Consider “cIAP2 (endogenous, A549 cells) (from UniProt Q13489 1-604)”, for which, in assay [3], the binding entry was “binds”.
